Literature values in patent publication US5444085A, “Methods of inhibiting HIV and inhibiting the activation of HIV” (Warner-Lambert Company, priority 1994, dated 1995).

System: HIV-infected cells
Conditions: Hamamoto et al. 1989; cited from earlier work

CN[C@@H]1C[C@H]2O[C@@](C)([C@@H]1OC)n1c3ccccc3c3c4c(c5c6ccccc6n2c5c31)C(=O)NC4 [Staurosporine, staurosporine]
inhibition of TPA-mediated CD4 down regulation and augmentation of HIV expression: effective TPA inhibitor for both of these actions
